Laboratory results reported in the supplement of paper PMC12823440, “Inhibitors supercharge kinase turnover through native proteolytic circuits” (Nature, 2025).
Where a name gives a salt, the structure may show the parent alone. This is one part of the list. The calls rarely recur for the same compound in another form.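 Kinases were expressed as nanoluciferase fusions in K562 cells and luminescence was read every 4 h between 2 and 18 h as percent of control, DMSO set to 100% and a positive control to 0%. A time point counts as decreased when the signal drops significantly (2 sigma). The hit call is the authors' own, does not follow from the count of time points alone, and its rule is not shown.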

Chains of the proteins cited; added tags and fusions are not shown. Lines headed by an entry give the natural chain unless they say otherwise; changes in a name come on top.
UniProt Q8IWU2: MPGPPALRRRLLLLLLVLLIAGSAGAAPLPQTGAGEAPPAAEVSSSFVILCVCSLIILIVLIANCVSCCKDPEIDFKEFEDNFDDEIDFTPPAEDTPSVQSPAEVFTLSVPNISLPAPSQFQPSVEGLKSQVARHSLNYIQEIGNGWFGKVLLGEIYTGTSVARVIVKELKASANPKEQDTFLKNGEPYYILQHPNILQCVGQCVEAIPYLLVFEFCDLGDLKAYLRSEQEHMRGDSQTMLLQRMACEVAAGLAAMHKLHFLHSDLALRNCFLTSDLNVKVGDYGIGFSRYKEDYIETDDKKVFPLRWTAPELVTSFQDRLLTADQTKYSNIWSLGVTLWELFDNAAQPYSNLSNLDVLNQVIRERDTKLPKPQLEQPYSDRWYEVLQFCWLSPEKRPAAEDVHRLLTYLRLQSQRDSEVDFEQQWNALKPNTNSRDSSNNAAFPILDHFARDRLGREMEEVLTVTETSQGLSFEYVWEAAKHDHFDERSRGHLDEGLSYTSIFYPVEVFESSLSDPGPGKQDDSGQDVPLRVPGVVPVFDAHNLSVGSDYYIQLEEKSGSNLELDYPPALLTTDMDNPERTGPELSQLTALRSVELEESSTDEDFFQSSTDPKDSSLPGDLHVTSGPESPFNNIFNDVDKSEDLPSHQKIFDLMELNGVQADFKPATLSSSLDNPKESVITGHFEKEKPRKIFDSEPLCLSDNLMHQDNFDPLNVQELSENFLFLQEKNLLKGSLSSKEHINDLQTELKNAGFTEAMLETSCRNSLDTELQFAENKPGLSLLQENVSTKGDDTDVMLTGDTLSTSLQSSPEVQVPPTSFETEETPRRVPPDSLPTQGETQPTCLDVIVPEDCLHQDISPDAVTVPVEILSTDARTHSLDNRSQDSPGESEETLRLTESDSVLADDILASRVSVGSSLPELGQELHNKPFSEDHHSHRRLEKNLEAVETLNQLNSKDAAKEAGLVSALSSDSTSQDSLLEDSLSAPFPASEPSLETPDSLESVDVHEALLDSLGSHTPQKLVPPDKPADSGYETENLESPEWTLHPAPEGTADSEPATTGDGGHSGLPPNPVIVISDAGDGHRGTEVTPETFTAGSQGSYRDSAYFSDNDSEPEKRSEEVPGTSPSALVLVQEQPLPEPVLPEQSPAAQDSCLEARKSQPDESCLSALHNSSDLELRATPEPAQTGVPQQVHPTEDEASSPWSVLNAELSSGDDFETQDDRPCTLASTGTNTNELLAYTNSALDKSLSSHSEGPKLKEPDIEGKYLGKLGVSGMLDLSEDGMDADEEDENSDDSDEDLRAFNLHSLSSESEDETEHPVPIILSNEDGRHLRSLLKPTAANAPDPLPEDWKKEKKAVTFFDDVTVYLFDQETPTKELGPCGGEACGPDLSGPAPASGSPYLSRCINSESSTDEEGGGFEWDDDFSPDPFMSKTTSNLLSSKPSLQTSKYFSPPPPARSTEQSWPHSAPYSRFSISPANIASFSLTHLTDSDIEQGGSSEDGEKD
UniProt P07948: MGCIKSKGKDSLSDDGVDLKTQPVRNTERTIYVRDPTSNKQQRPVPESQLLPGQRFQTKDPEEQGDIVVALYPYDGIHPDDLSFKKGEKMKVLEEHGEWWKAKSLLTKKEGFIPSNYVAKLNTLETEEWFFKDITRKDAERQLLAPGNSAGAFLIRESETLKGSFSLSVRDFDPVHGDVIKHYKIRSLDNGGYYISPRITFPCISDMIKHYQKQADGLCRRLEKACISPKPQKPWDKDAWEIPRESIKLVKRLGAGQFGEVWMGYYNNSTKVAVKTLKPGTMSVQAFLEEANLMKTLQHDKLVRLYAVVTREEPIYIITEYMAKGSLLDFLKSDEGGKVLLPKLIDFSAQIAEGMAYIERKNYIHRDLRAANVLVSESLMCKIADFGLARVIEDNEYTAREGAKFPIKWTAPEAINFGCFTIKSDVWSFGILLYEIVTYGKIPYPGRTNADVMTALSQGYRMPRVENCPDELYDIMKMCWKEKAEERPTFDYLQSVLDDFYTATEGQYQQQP
UniProt Q12851: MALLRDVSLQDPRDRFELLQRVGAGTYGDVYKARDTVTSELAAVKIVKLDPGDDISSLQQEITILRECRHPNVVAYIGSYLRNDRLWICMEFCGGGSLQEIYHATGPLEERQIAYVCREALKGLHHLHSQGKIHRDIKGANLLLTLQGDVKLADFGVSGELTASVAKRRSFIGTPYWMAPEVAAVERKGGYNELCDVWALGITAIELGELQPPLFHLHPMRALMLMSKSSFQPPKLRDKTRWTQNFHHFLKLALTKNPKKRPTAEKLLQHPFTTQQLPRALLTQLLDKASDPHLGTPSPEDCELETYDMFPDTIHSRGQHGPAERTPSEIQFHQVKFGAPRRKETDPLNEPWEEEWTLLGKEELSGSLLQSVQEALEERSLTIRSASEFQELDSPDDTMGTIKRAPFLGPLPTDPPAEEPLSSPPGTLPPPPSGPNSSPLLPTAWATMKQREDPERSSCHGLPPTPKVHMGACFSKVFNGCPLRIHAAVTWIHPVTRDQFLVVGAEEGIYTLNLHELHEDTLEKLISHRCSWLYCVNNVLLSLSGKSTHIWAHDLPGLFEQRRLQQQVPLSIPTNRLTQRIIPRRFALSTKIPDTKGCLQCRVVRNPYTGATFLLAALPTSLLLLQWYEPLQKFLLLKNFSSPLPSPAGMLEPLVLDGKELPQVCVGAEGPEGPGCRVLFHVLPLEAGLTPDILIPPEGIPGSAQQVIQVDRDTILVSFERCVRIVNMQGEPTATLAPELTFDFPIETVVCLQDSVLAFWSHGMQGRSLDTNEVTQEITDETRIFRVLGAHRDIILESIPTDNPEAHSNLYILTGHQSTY
UniProt P28482, whole entry: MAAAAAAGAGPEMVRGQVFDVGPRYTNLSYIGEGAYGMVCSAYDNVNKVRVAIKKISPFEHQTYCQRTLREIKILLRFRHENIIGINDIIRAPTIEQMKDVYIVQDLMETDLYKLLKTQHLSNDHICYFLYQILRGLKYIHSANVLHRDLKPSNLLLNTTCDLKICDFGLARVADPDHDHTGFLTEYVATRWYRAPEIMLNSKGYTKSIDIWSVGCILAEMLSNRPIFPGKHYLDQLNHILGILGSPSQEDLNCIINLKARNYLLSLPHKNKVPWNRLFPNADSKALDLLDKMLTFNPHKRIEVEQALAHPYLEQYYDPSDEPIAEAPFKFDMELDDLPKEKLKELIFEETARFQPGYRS
UniProt P31152, whole entry: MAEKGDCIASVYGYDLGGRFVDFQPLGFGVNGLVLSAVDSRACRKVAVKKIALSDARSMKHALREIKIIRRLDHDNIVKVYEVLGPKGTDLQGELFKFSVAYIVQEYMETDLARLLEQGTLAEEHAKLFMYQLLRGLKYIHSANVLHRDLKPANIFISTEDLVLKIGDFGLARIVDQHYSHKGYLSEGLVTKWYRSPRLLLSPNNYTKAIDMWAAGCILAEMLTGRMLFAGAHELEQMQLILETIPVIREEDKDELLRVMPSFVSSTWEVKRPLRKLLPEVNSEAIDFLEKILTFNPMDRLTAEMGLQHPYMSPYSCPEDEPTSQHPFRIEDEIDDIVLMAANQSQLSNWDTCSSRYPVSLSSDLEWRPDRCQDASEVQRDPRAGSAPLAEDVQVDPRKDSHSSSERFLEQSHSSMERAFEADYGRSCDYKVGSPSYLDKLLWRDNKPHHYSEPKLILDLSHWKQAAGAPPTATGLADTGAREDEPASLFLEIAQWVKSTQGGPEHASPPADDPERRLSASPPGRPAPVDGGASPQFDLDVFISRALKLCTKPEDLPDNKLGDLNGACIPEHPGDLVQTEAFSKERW
UniProt P49137, whole entry, looked up: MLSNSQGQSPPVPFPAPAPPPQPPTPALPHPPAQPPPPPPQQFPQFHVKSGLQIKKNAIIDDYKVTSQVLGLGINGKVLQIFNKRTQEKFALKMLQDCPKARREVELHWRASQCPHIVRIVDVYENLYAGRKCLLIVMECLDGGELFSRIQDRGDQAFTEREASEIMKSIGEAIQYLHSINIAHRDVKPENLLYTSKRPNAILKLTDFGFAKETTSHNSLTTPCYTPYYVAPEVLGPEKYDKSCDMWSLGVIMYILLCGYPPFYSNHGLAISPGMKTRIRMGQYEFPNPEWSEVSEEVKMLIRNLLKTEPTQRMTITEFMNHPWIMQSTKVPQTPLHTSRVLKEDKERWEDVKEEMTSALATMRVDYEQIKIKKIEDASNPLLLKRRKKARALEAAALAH
UniProt Q9BUB5: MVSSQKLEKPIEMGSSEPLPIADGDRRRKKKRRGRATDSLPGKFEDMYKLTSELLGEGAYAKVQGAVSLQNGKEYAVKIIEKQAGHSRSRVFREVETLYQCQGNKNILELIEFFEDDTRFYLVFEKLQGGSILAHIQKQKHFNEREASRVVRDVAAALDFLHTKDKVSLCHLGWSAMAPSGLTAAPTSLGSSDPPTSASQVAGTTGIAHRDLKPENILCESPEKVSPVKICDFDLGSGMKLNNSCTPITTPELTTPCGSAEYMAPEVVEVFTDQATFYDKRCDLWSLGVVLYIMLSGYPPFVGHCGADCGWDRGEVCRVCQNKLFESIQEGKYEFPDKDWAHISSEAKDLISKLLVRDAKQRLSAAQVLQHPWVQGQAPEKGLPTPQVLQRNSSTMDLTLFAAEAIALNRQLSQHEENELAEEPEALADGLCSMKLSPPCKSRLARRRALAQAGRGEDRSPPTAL
UniProt Q16620, whole entry, looked up: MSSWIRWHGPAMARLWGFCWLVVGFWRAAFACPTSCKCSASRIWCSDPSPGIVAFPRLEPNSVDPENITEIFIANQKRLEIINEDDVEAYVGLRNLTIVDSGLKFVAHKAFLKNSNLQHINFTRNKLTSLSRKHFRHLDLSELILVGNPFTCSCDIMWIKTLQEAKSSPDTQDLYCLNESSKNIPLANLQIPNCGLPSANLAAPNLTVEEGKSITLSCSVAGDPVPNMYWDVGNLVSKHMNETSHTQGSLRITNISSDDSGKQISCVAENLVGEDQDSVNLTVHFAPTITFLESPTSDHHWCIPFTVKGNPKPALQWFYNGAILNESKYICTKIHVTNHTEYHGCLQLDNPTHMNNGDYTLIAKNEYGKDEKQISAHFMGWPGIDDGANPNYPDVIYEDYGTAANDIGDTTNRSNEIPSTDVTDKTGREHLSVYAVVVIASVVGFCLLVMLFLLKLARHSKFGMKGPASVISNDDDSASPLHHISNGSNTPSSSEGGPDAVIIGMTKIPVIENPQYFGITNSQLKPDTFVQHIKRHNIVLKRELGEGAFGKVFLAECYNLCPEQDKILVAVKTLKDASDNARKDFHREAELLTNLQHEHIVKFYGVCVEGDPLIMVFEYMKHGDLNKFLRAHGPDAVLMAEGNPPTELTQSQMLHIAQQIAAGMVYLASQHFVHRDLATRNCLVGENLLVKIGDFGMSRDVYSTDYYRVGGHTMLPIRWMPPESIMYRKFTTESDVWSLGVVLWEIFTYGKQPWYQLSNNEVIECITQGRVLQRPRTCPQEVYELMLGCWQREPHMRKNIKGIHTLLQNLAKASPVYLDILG

Key:
Assay in all cases: number of time points (of 5) at which kinase-Nluc abundance scored as decreased, DMSO-normalised (count); higher = more persistent destabilization
Conditions in all cases: K562; 2-18 h
LMTK2 = LMTK2 (UniProt Q8IWU2)
LYN = LYN (UniProt P07948)
MAP2K1 = MAP2K1 (UniProt Q02750)
MAP2K2 = MAP2K2 (UniProt P36507)
MAP4K2 = MAP4K2 (UniProt Q12851)
MAPK1 = MAPK1 (UniProt P28482)
MAPK4 = MAPK4 (UniProt P31152)
MAPKAPK2 = MAPKAPK2 (UniProt P49137)
MKNK1 = MKNK1 (UniProt Q9BUB5)
NTRK2 = NTRK2 (UniProt Q16620)

Measured: number of time points

N#C/C(=C(/N)Sc1ccc(N)cc1)c1ccccc1C(F)(F)F (10 µM)
0: LMTK2 | LYN | MAP2K1 | MAP2K2 | MAP4K2 | MAPK1 | MAPK4 | MAPKAPK2 | MKNK1 | NTRK2

COc1cc(C(=O)N2CCC(N3CCN(C)CC3)CC2)ccc1Nc1ncc2c(n1)N(C)c1ccccc1C(=O)N2C (10 µM)
0: LMTK2 | LYN | MAP2K1 | MAP2K2 | MAP4K2 | MAPK1 | MAPK4 | MAPKAPK2 | MKNK1 | NTRK2

Nc1cc(C(F)F)c(-c2nc(N3C4CCC3COC4)nc(N3C4CCC3COC4)n2)cn1 (2.5 µM)
0: LMTK2 | LYN | MAP2K1 | MAP2K2 | MAP4K2 | MAPK1 | MAPK4 | MAPKAPK2 | MKNK1 | NTRK2

Cn1ncc(Cl)c1-c1cc(C(=O)N[C@H](CN)Cc2ccc(F)c(F)c2)sc1Cl (10 µM)
0: LMTK2 | LYN | MAP2K1 | MAP2K2 | MAP4K2 | MAPK1 | MAPK4 | MAPKAPK2 | MKNK1 | NTRK2

c1ccc(-c2nn3c(c2-c2ccnc4cc(OCCN5CCOCC5)ccc24)CCC3)nc1 (10 µM)
0: LMTK2 | LYN | MAP2K1 | MAP2K2 | MAP4K2 | MAPK1 | MAPK4 | MAPKAPK2 | MKNK1 | NTRK2

O=C(c1ccc(Nc2nccc(-c3cc4ccccc4s3)n2)cc1)N1CCC(N2CCCC2)CC1 (2.5 µM)
0: LMTK2 | LYN | MAP2K1 | MAP2K2 | MAP4K2 | MAPK1 | MAPK4 | MAPKAPK2 | MKNK1 | NTRK2

COc1cc2ncnc(Nc3ccc(NC(=O)c4ccccc4)cc3)c2cc1OC [Aurora kinase inhibitor-2] (2.5 µM)
0: LMTK2 | LYN | MAP2K1 | MAP2K2 | MAP4K2 | MAPK1 | MAPK4 | MAPKAPK2 | MKNK1 | NTRK2

CN(C)Cc1cccc(N=C(c2ccccc2)c2c(O)[nH]c3cc(C(=O)N(C)C)ccc23)c1 (10 µM)
0: LMTK2 | LYN | MAP2K1 | MAP2K2 | MAP4K2 | MAPK1 | MAPK4 | MAPKAPK2 | MKNK1 | NTRK2

CC(C)(C)c1cc(C(c2cc3c(cc2O)OCO3)N2CCOCC2)cc(C(C)(C)C)c1O (stereo not given) (2.5 µM)
0: LMTK2 | LYN | MAP2K1 | MAP2K2 | MAP4K2 | MAPK1 | MAPK4 | MAPKAPK2 | MKNK1 | NTRK2

Cn1cc(-c2cc3c(N4CCN(c5ncc([C@@](C)(N)c6ccc(F)cc6)cn5)CC4)ncnn3c2)cn1 [Avapritinib] (2.5 µM)
0: LMTK2 | LYN | MAP2K1 | MAP2K2 | MAP4K2 | MAPK1 | MAPK4 | MAPKAPK2 | MKNK1 | NTRK2

Quoted at random: two compounds from above.
O=C(c1ccc(Nc2nccc(-c3cc4ccccc4s3)n2)cc1)N1CCC(N2CCCC2)CC1 (2.5 µM)
0: LMTK2 | LYN | MAP2K1 | MAP2K2 | MAP4K2 | MAPK1 | MAPK4 | MAPKAPK2 | MKNK1 | NTRK2

COc1cc2ncnc(Nc3ccc(NC(=O)c4ccccc4)cc3)c2cc1OC [Aurora kinase inhibitor-2] (2.5 µM)
0: LMTK2 | LYN | MAP2K1 | MAP2K2 | MAP4K2 | MAPK1 | MAPK4 | MAPKAPK2 | MKNK1 | NTRK2

Carrying on.

NCCCCCCNS(=O)(=O)c1cccc2c(Cl)cccc12 [W-7 (hydrochloride)] (10 µM)
0: LMTK2 | LYN | MAP2K1 | MAP2K2 | MAP4K2 | MAPK1 | MAPK4 | MAPKAPK2 | MKNK1 | NTRK2

CC[C@H](C)[C@H](NC(=O)[C@H](CCC(=O)O)NC(=O)[C@H](CCCN=C(N)N)NC(=O)[C@H](CCCN=C(N)N)NC(=O)[C@@H](N)CCCCN)C(=O)N[C@@H](CC(C)C)C(=O)N[C@@H](CO)C(=O)N[C@@H](CCCN=C(N)N)C(=O)N[C@@H](CCCN=C(N)N)C(=O)N1CCC[C@H]1C(=O)N[C@@H](CO)C(=O)N[C@@H](Cc1ccc(O)cc1)C(=O)N[C@@H](CCCN=C(N)N)C(=O)O [CREBtide] (10 µM)
0: LMTK2 | LYN | MAP2K1 | MAP2K2 | MAP4K2 | MAPK1 | MAPK4 | MAPKAPK2 | MKNK1 | NTRK2

COc1cc(N2CCC(N3CCN(C)CC3)CC2)ccc1Nc1nc2c(c(Nc3ccccc3S(=O)(=O)NC(C)C)n1)CCN2 [Conteltinib] (10 µM)
0: LMTK2 | LYN | MAP2K1 | MAP2K2 | MAP4K2 | MAPK1 | MAPK4 | MAPKAPK2 | MKNK1 | NTRK2

[O-][n+]1cccc(-c2nc3c(Cl)cccc3cc2[C@@H](Nc2ncnc3cccnc23)C(F)(F)F)c1 [Seletalisib] (10 µM)
0: LMTK2 | LYN | MAP2K1 | MAP2K2 | MAP4K2 | MAPK1 | MAPK4 | MAPKAPK2 | MKNK1 | NTRK2

O=C1NCCCc2c1oc1ccc(O)cc21 (10 µM)
0: LMTK2 | LYN | MAP2K1 | MAP2K2 | MAP4K2 | MAPK1 | MAPK4 | MAPKAPK2 | MKNK1 | NTRK2

O=C1NC(=O)C(c2cn(-c3ccccc3)nc2-c2ccc(F)cc2)N1 (stereo not given) (10 µM)
0: LMTK2 | LYN | MAP2K1 | MAP2K2 | MAP4K2 | MAPK1 | MAPK4 | MAPKAPK2 | MKNK1 | NTRK2

C[C@@H]1COCCN1c1cc(C2([S@](C)(=N)=O)CC2)nc(-c2cc[nH]c3nccc2-3)n1 [Ceralasertib] (2.5 µM)
0: LMTK2 | LYN | MAP2K1 | MAP2K2 | MAP4K2 | MAPK1 | MAPK4 | MAPKAPK2 | MKNK1 | NTRK2
